Laboratory results as given in the supplement of paper PMC12067093, “Discovery and optimisation of a covalent ligand for TRIM25 and its application to targeted protein ubiquitination” (Chemical Science, 2025).
Some of the results follow.

By UniProt entry, the sequences of proteins in these tests, tags left out. Where a name states a change or a piece, a line headed by the entry shows the natural chain unless it says otherwise.
UniProt Q9NRL2: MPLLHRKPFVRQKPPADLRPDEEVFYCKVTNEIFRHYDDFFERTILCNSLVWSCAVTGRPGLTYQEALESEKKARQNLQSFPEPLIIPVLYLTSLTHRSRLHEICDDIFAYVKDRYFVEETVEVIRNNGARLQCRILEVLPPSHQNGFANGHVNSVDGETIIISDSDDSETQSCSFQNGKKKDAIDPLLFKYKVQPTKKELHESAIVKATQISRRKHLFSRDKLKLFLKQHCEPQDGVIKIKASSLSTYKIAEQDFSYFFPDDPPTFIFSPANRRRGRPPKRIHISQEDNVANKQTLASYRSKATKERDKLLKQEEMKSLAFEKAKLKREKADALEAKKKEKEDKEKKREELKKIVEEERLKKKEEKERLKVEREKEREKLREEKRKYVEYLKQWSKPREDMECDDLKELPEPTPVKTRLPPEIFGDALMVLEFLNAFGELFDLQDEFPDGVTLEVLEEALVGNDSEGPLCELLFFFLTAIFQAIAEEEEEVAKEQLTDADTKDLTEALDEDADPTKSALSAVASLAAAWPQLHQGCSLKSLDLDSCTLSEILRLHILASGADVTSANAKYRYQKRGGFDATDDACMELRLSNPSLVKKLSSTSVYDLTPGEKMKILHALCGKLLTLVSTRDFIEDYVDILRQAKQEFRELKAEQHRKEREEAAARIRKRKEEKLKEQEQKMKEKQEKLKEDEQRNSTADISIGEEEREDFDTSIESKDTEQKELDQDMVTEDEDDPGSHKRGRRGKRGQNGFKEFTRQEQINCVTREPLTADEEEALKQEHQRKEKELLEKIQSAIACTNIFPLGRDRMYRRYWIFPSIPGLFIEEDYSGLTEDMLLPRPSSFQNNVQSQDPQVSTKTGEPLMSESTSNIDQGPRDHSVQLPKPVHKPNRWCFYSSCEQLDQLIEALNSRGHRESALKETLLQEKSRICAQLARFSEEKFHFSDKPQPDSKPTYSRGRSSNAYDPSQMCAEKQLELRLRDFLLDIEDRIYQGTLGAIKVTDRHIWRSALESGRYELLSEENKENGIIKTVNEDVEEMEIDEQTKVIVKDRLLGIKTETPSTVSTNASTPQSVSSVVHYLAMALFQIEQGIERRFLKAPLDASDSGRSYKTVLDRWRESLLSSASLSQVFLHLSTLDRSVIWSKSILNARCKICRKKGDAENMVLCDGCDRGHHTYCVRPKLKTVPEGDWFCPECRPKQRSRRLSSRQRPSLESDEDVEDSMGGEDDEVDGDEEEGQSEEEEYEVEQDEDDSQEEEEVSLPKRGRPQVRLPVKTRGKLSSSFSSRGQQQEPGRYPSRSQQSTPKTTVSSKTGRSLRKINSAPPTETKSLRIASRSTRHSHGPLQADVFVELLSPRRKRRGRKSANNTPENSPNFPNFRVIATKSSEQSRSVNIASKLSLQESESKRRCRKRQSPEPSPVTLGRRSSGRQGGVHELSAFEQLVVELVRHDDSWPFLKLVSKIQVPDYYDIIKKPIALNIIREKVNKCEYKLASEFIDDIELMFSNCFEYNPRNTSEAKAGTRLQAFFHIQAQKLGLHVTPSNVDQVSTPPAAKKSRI
UniProt P54132: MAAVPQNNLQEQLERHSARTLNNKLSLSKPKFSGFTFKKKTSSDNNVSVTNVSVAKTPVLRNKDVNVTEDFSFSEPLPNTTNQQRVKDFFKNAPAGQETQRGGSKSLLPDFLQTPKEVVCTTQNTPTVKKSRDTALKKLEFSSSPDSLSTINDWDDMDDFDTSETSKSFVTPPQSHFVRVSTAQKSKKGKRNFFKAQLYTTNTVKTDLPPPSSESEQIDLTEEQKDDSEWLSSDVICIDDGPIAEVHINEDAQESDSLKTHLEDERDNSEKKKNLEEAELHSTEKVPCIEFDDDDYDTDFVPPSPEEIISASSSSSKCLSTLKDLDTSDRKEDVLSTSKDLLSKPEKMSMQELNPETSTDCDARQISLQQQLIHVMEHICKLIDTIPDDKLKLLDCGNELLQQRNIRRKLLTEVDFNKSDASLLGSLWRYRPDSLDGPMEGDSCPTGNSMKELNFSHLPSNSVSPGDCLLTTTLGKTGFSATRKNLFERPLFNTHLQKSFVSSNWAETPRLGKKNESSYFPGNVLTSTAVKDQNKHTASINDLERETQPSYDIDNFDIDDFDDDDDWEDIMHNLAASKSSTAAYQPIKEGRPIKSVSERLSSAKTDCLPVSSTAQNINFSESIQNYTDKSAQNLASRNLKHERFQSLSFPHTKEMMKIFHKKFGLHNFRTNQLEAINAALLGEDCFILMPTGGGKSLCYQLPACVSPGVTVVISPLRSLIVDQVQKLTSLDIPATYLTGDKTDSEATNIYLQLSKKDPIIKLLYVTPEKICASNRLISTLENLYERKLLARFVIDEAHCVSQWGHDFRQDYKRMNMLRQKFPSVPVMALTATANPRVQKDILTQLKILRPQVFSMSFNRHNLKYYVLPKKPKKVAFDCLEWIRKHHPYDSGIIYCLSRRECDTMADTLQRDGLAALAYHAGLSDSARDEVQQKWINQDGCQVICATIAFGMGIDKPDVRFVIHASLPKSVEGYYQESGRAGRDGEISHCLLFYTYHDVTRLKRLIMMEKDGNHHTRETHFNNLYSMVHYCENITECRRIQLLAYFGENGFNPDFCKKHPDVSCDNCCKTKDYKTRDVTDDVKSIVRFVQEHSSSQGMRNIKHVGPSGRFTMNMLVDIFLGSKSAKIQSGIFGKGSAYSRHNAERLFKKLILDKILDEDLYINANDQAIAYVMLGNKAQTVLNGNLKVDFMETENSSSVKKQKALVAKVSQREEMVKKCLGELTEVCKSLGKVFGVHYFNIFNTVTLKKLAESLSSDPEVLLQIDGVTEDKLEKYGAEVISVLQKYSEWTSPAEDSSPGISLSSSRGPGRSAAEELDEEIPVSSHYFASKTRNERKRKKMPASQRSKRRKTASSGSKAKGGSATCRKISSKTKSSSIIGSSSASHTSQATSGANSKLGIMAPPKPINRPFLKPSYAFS
UniProt O95861: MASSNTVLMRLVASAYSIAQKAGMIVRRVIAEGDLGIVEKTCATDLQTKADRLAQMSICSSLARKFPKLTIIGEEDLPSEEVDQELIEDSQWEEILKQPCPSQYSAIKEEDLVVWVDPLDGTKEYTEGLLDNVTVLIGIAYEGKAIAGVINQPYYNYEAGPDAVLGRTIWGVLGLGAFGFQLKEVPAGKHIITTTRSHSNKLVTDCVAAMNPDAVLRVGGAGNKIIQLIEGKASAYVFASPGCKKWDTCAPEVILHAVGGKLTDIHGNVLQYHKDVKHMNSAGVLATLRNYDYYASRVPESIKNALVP
UniProt Q13323: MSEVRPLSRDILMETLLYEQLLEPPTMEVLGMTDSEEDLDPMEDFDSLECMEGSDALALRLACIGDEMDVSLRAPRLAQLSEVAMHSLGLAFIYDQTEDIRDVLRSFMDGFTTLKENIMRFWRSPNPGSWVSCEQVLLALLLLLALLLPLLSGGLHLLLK
UniProt Q6W2J9: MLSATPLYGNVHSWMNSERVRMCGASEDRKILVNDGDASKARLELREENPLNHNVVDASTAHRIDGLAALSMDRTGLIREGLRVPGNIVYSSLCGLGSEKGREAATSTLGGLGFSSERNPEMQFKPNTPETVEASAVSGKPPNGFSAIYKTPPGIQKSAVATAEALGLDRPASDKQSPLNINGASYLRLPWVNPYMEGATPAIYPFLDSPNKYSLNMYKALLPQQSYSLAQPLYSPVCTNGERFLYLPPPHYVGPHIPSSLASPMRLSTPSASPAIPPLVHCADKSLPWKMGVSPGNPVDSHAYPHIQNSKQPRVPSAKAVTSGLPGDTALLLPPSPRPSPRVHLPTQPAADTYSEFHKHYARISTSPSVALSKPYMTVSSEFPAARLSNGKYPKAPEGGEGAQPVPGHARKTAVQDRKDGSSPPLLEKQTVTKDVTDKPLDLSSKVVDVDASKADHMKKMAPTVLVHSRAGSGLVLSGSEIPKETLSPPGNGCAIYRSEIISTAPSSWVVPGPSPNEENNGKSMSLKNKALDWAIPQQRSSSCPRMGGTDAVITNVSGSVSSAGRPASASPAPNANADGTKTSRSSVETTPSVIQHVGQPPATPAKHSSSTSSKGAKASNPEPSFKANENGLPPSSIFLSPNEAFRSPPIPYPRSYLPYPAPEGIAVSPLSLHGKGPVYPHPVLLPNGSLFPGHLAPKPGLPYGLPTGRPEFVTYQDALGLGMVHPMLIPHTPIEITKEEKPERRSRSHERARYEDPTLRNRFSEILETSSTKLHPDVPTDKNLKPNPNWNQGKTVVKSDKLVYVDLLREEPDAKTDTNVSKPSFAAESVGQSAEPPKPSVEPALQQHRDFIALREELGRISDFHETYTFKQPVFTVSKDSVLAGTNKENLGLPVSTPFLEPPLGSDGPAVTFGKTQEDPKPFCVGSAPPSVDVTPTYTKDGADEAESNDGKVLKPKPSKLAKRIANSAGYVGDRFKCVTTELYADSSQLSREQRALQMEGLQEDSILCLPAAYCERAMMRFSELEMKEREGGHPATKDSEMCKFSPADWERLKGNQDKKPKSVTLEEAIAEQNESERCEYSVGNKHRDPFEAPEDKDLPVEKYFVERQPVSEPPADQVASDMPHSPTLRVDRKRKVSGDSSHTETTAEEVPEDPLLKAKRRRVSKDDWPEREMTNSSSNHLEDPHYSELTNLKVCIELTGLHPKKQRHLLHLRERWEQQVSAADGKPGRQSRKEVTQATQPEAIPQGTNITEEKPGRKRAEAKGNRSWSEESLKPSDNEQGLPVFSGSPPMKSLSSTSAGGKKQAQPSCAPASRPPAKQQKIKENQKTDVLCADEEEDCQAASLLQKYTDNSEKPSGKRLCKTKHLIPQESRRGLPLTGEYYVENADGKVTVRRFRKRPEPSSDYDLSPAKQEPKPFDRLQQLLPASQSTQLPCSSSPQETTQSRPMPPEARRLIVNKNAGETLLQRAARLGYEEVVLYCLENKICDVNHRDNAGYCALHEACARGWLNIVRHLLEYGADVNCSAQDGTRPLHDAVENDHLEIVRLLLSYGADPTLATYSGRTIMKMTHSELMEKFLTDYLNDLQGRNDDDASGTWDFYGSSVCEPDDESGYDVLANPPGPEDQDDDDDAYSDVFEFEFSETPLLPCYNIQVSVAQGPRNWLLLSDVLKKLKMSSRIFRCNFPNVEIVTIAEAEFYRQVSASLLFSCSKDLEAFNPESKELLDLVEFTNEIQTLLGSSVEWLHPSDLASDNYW
UniProt Q8NBF6: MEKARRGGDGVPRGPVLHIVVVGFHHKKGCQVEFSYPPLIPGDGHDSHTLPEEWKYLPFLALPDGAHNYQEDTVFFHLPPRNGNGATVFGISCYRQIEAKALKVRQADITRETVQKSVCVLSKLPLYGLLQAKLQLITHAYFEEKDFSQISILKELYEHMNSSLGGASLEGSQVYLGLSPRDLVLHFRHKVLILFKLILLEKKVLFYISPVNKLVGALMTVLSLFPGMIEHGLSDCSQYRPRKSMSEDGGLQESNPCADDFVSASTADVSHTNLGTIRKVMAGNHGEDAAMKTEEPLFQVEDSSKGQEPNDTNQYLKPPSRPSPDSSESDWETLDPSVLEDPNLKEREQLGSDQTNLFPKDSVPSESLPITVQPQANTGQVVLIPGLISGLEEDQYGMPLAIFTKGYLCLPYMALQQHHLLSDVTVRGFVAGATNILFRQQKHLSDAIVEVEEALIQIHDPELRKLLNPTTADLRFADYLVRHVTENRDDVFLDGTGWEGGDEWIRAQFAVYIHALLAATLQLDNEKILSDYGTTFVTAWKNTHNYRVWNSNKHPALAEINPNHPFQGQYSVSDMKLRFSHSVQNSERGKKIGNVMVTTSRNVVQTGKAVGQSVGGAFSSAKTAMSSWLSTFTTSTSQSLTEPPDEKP
UniProt Q14137: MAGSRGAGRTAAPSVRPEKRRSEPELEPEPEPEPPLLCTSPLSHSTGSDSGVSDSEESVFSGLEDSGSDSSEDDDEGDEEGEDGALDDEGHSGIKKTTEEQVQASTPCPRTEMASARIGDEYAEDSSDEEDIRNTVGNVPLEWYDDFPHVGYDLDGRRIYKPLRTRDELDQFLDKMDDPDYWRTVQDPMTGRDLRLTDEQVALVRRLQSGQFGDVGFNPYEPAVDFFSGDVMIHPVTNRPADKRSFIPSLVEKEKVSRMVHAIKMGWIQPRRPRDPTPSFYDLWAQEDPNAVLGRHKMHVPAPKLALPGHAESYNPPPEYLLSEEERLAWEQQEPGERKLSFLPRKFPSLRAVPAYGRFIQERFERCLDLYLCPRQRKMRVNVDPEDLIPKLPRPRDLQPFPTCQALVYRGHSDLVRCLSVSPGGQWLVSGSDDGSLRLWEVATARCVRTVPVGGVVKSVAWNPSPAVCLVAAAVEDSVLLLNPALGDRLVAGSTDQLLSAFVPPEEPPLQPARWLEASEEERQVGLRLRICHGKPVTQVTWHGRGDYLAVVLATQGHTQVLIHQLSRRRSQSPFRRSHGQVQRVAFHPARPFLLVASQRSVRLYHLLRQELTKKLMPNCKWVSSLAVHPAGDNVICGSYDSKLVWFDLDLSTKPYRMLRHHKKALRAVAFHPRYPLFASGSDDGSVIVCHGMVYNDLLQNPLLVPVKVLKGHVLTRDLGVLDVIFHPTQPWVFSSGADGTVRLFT

Compound: CC1Cc2ccccc2N1C(=O)C1CCCN(C1)C(=O)CCl (mixture of isomers) [TRIM25 ligand 11 (diastereomer mixture)]
Assay: probe-labelled cysteine peptide fold change vs DMSO (competition) (log2 fold change); higher = less target engagement (more negative = stronger competition)
Conditions: THP-1, incubation time: 4 h
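Also: competitive chemoproteomic profiling in live THP-1 cells with an iodoacetamide desthiobiotin (IA-DTB) probe, comparing probe-labelled peptide intensities in compound-treated cells against DMSO-treated controls.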

Target | probe-labelled cysteine peptide fold change (10 µM) | probe-labelled cysteine peptide fold change (50 µM)
BAZ1A_Q9NRL2_586_GGFDATDDACMELR (UniProt Q9NRL2) | -0.13 | -0.109
BIRC6_Q9NR09_4666_VCLSILNTWHGRPEEK (UniProt Q9NR09) | 0.0292 | -0.000835
BLM_P54132_120_EVVCTTQNTPTVK (UniProt P54132) | 0.0344 | -0.13
BPNT1_O95861_243_ASAYVFASPGCK (UniProt O95861) | -0.0394 | -0.259
BIRC6_Q9NR09_390_ISCFGSGSCPHFLAAATK (UniProt Q9NR09) | 0.166 | -0.00212
AZU1_P20160_207+222_RGGICNGDGGTPLVCEGLAHGVASFSLGPCGR (UniProt P20160) | 0.486 | 0.439
BARGIN_Q6ZT62_213_KVEQCRDEYLADLYHFVTK (UniProt Q6ZT62) | -0.11 | 0.0581
BAG1_Q99933_272_DLQAEALCK (UniProt Q99933) | -0.00206 | 0.0986
B4GALT7_Q9UBV7_307_TALSVGGAPCTVLNIMLDCDK (UniProt Q9UBV7) | 0.43 | 0.0101
BPNT1_O95861_249_KWDTCAPEVILHAVGGK (UniProt O95861) | -0.0317 | 0.00684
BOLA2B_Q9H3K6_59_LVNACLAEELPHIHAFEQK (UniProt Q9H3K6) | -0.108 | 0.00725
BAHD1_Q8TBE0_598_TNGWVPVGAACEK (UniProt Q8TBE0) | 0.124 | 0.0893
BIK_Q13323_63_LACIGDEMDVSLR (UniProt Q13323) | 0.0736 | -0.0199
BAIAP2_Q9UQB8_202_QCAVAK (UniProt Q9UQB8) | -0.159 | -0.0335
BLMH_Q13867_40_LNSDPQFVLAQNVGTTHDLLDICLK (UniProt Q13867) | 0.0671 | 0.0882
BCOR_Q6W2J9_1080_SVTLEEAIAEQNESERCEYSVGNK (UniProt Q6W2J9) | -0.122 | -0.41
BIN1_O00499_47_ADETKDEQFEQCVQNFNK (UniProt O00499) | -0.18 | -0.0534
BPNT1_O95861_100_QPCPSQYSAIKEEDLVVWVDPLDGTK (UniProt O95861) | -0.359 | 0.0995
BOD1L1_Q8NFC6_2164_CAESLQPVAAAVEER (UniProt Q8NFC6) | 0.0625 | -0.315

Taken from above:
BOD1L1_Q8NFC6_2164_CAESLQPVAAAVEER (UniProt Q8NFC6) – probe-labelled cysteine peptide fold change (50 µM): -0.315
BLM_P54132_120_EVVCTTQNTPTVK (UniProt P54132) – probe-labelled cysteine peptide fold change (10 µM): 0.0344

Going on with the list.

Target | probe-labelled cysteine peptide fold change (10 µM) | probe-labelled cysteine peptide fold change (50 µM)
AVEN_Q9NQS1_251_SVAAGCPVLLGK (UniProt Q9NQS1) | 0.0433 | -0.12
BOD1L1_Q8NFC6_1554_QSEVALPCTSIEADEGLIIGTHSR (UniProt Q8NFC6) | -0.0709 | -0.164
BCORL1_Q5H9F3_1709_LLGSEVEFQSCNS (UniProt Q5H9F3) | -0.0788 | -0.044
AVL9_Q8NBF6_119_SVCVLSK (UniProt Q8NBF6) | 0.162 | 0.0858
BAZ1A_Q9NRL2_232_QHCEPQDGVIK (UniProt Q9NRL2) | -0.0384 | -0.047
BIRC6_Q9NR09_874_IQHIKDPQDTITSLILLPPDILDNREDDCEEPIEDMQLTSK (UniProt Q9NR09) | -0.0682 | -0.286
BAZ1B_Q9UIG0_1205_LILCDECNK (UniProt Q9UIG0) | 0.063 | -0.0506
BIRC6_Q9NR09_355_HSPNCPFVK (UniProt Q9NR09) | -0.079 | -0.0323
BPTF_Q12830_1357_LASADDIGTLICK (UniProt Q12830) | 0.0298 | -0.193
BOP1_Q14137_404_DLQPFPTCQALVYR (UniProt Q14137) | -0.171 | -0.237
BAZ2A_Q9UIF9_1660_SAAQVCLCLGQLER (UniProt Q9UIF9) | 0.0716 | -0.303
BCOR_Q6W2J9_1044_DSEMCK (UniProt Q6W2J9) | -0.179 | -0.488
B4GALT3_O60512_190+209_EALRDEEWDCLFLHDVDLLPENDHNLYVCDPR (UniProt O60512) | 0.508 | 0.0545
AZU1_P20160_149_CQVAGWGSQR (UniProt P20160) | 0.0126 | -0.0102
ATXN7L3_Q14CW9_226_CPQHTDEQR (UniProt Q14CW9) | -0.0455 | 0.00938
BOP1_Q14137_108_KTTEEQVQASTPCPR (UniProt Q14137) | -0.18 | -0.225
BCR_P11274_737_HVFLFTDLLLCTK (UniProt P11274) | 0.0719 | 0.203
BIRC6_Q9NR09_1183_LCPFLEDHKEDILCGPVWLASGLDLSGHAGMLTLTSPK (UniProt Q9NR09) | 0.0745 | 0.00914
ATXN10_Q9UBB4_92_NACIECSVNQNSIR (UniProt Q9UBB4) | 0.00922 | 0.199
